This note sets out measurements from publication PMC9075623.

By UniProt entry, the sequences of proteins in these tests, tags left out.
UniProt P21796: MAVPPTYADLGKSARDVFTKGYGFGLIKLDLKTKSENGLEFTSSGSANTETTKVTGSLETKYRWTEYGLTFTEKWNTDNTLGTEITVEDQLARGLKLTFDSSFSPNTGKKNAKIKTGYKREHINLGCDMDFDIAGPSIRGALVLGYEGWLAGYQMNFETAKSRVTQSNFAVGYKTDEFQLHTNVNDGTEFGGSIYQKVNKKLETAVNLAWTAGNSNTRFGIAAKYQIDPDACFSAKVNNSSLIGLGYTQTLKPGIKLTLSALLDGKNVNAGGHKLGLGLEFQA
UniProt P04406: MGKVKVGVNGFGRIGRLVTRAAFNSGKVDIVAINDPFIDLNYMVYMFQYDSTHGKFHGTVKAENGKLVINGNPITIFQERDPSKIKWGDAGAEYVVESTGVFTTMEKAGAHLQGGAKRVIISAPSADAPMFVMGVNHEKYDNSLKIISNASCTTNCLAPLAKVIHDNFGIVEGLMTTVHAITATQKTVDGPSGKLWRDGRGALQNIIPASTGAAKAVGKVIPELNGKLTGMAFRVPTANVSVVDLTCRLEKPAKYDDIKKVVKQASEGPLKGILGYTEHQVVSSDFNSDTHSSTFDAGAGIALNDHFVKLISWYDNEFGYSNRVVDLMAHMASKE

The experiment concerns the target voltage-dependent anion-selective channel protein 1 (VDAC1) (human (endogenous in U87MG)) (UniProt P21796). The experiment in a line: co-IP; U87MG cells overexpressing V5-tagged TSPO^WT or TSPO^A147T; IP with antibody against the endogenous partner (VDAC1, Hsp90AA1), immunoblot for V5; V5-tagged pcDNA as negative control. In general terms: In western blotting, separated proteins are transferred to a membrane and probed.

Results are given in words; binding and its absence hold for the method and conditions named. Binding seen in cells or lysates may run through a third protein.

GAPDH (from UniProt P04406 1-335): the binding result was “no binding”.
